Measurements from PubChem BioAssay AID1487 (National Center for Advancing Translational Sciences (NCATS), 2009).
The campaign covered roughly 200,000 compounds. About 25 (0.01%) were called active. The inconclusive results got no clear call from the source; some entries with a clear call stand among them for comparison. Calls follow the shape of the dose curve; as a rule, active = well fitted inhibition curve with a large enough effect in the signal ratio, with a control signal flat (not every such curve was filed as active); inconclusive = small, poorly fitted or top-dose-only effect, or effect the other way, or a change in a side signal; inactive = flat fitted curve, though single readings scatter; the % refers to the signal ratio. Potencies of inconclusive entries are doubtful fits and often do not repeat.

Assay: qHTS Assay for Modulators of Lamin A Splicing
Details: HeLa LMNA splicing GFP/RFP minigene ratio, 48 h; ratio change, negative = inhibition: at 46.1 µM (top of the series) unless noted
Outline: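 S3 HeLa cells stably expressing lamin A-EGFP splicing minigene plus DsRed2, 600 cells/well, 48 h compound exposure at 37C. Laser-scanning cytometry; analysed as GFP (500-530 nm)/RFP (575-640 nm) total intensity ratio; 0.5% DMSO vehicle.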
% is scaled to controls: 0 for no effect and ±100 for the full control effect; potency is read from the fitted curve at half-maximal effect.

SMILES | ratio change, negative = inhibition | Potency
FC(F)(F)c1cc(-c2ccco2)nc(NCc2ccco2)n1 | inactive: -7.01% | –
COC(=O)c1ccc(CSC(=N)N)o1 | – | inconclusive: 35.5 µM [inhibitor, single point]
Cc1cc2[nH]c(=O)c(=O)[nH]c2cc1S(=O)(=O)N1CCN(c2cccc(Cl)c2)CC1 | inconclusive: 11% [at 46 µM] | –
O=c1cc(O)nc(SCc2ccc(Cl)cc2)[nH]1 | inconclusive: 27.1% | –
CNc1nc(N)c([N+](=O)[O-])c(Nc2cccc(Cl)c2)n1 | inconclusive: 2.41% [at 46 µM] | –
CCCCCCC(=O)Nc1nc(C)c(-c2csc(Nc3cc(Cl)ccc3C)n2)s1 | inactive: 10.6% [at 0.0737 µM] | –
COc1ccc(NC(=O)CN2CCN(C3c4ccccc4-c4ccccc43)CC2)cc1 | inconclusive: -27.1% | –
c1ccc(-c2cc3n(c2)CCc2ccccc2-3)cc1 | inactive: -8.33% | –
COc1ccc2nc3c(cc2c1)c(NC(=O)C1CCCO1)nn3CC(C)C (stereo not given) | inconclusive: 32% | –
Cc1nc(NC(=O)COC(=O)c2cc3c(s2)CCC(C)C3)c(Cl)cc1Cl (stereo not given) | inconclusive: -1.17% | –
Cc1ccc(-c2nn(C)c(=O)c3ccccc23)cc1CNC(=O)CN1CCOCC1 | inactive: 1.73% | –
O=[N+]([O-])c1ccc(O)c(/C=N/Nc2ccccc2Cl)c1 | inconclusive: -43.2% [at 46 µM] | –
CCc1c(C)sc2c1CCN(Cc1ccccc1F)C2c1ccccc1 (stereo not given) | inconclusive: -14.1% [at 46 µM] | –
C/C(=N\Nc1nc(Nc2ccccc2)nc(N2CCOCC2)n1)c1cccs1 | inconclusive: -9.17% [at 46 µM] | –
Cc1cnc(C(=O)OCC(=O)NC23CC4CC(CC(C4)C2)C3)cn1 | inactive: -1.01% | –
COc1ccc2[nH]cc(CCNc3cc(-c4cccc(C#N)c4)ncn3)c2c1 | inconclusive: -25.1% | –
CN(C)/C=N/c1ncn(-c2ncc(C(F)(F)F)cc2Cl)n1 | inconclusive: 4.08% [at 46 µM] | –
Nc1nc(CN2CCN(c3ccccc3F)CC2)nc(Nc2ccccc2)n1 | inconclusive: 9.42% | –
O=C(Nc1cccc(Oc2c(F)c(F)c(F)c(F)c2F)c1)N1C[C@@H]2C[C@@H](C1)c1cccc(=O)n1C2 | – | inconclusive: 12.6 µM [activator, partial curve, poor fit]
Cc1[nH]c(=O)c(C#N)cc1-c1ccc2nccn2c1 | inconclusive: -14.1% [at 46 µM] | –
Cc1cc2c(cc1S(=O)(=O)Nc1cc(C(F)(F)F)cc(C(F)(F)F)c1)OCC(=O)N2 | inconclusive: 3.21% [at 46 µM] | –
CC1CCCCN1C(=O)CSc1nnc(Cc2ccccc2)n1C (stereo not given) | inactive: -3.32% | –
O=C(NCCCOc1cccc(CN2CCCCC2)c1)c1ccc(Cl)c(Cl)c1 | inconclusive: 5.05% | –
CN(C(=O)c1ccc2c(c1)C(=O)N(CCC1=CCCCC1)C2=O)C1CCCCC1 | inactive: -3.02% | –
COc1cccc(C(C(=O)NC2CCCCC2)N(C(=O)c2ccco2)c2ccc(-n3cnnn3)c(C)c2)c1 (stereo not given) | inactive: -10.3% | –
Cc1ccc2nc(NNC(=O)c3ccc4c(c3)OCCO4)sc2c1 | – | inconclusive: 35.5 µM [fluorescent, single point]
CCCCCN(C(=O)CN1CCC(Cc2ccccc2)CC1)c1c(N)n(CCCC)c(=O)[nH]c1=O | inconclusive: -33% [at 46 µM] | –

2 neighbouring entries out of the list so far:
SMILES | ratio change, negative = inhibition | Potency
Cc1ccc2nc(NNC(=O)c3ccc4c(c3)OCCO4)sc2c1 | – | inconclusive: 35.5 µM [fluorescent, single point]
CCCCCN(C(=O)CN1CCC(Cc2ccccc2)CC1)c1c(N)n(CCCC)c(=O)[nH]c1=O | inconclusive: -33% [at 46 µM] | –

Further records follow.

SMILES | ratio change, negative = inhibition | Potency
CC(=O)Nc1ccc(S(=O)(=O)N(C)CC(=O)OCC(=O)c2cc(C)n(-c3ccc4c(c3)OCO4)c2C)cc1 | inconclusive: -27.1% | –
O=C(OCn1ncc(Br)c(Br)c1=O)c1c(F)cccc1F | – | inconclusive: 35.5 µM [falling, single point]
COC(=O)c1cc2sc(Cl)cc2n1CC(=O)Nc1cccc(SC)c1 | inconclusive: 31.5% | –
Cc1ccc(-n2ncc(C(=O)NCc3ccco3)c2C2CCN(C(=O)OC(C)(C)C)CC2)cc1C | inactive: -8.65% [at 46 µM] | –
CCN(C(=O)CN1C(=S)NC(C)(C)CC1C)c1ccc(C)c(C)c1 (stereo not given) | inactive: -0.48% [at 46 µM] | –
O=C(CNC(=O)c1ccccc1Cl)N/N=C/c1ccc([N+](=O)[O-])s1 | – | inconclusive: 14.1 µM [falling, single point]
Cc1c(C(=O)Nc2cc(F)ccc2F)sc2nc(-c3ccc(F)cc3)cn12 | inconclusive: 3.7% [at 46 µM] | –
COc1ccc(OC)c(NS(=O)(=O)c2ccc(NC(=O)C3COc4ccccc4O3)cc2)c1 (stereo not given) | – | inconclusive: 22.4 µM [fluorescent, single point]
CC(C)(C)c1ccc(CNc2ccc([N+](=O)[O-])cn2)cc1 | – | inconclusive: 35.5 µM [fluorescent, single point]
O=C(Cn1cc(C(=O)C2CC2)c2ccccc21)NCc1ccc2c(c1)OCO2 | inconclusive: 1.84% | –
CCCOc1ccc(N2C(=O)CC(N(CCC)C(=O)CCC(=O)O)C2=O)cc1 (stereo not given) | inactive: 13.1% | –
Cc1ccc(-c2nn3c(C)nnc3c3ccccc23)cc1S(=O)(=O)NCC(C)O (stereo not given) | inconclusive: -41.6% [at 46 µM] | –
Nc1n[nH]c2c1C1(CCCC1)Cc1ccccc1-2 | inconclusive: 8.16% | –
CCN1CCN(C(c2cccc(OC)c2)c2sc3nc(C)nn3c2O)CC1 (stereo not given) | inactive: -14.9% | –
N/C(=N\OC(=O)c1ccc(Br)o1)c1ccccn1 | inactive: -12.5% [at 46 µM] | –
Cc1ccccc1OCc1ccc(-c2nc(C#N)c(N3CCN(c4cccc(Cl)c4)CC3)o2)o1 | inconclusive: 6.25% [at 46 µM] | –
Cc1ccc(CNC(=O)C(=O)NCC(c2ccc3c(c2)OCO3)N2CCOCC2)cc1 (stereo not given) | inactive: 5.78% [at 46 µM] | –
CC(NC(=O)c1ccc(Cn2cc([N+](=O)[O-])cn2)cc1)c1ccccc1 (stereo not given) | inconclusive: 13.5% | –
COc1ccccc1N1CCN(C(=O)C2CCCN(S(=O)(=O)c3ccc4c(c3)CCCN4C(C)=O)C2)CC1 (stereo not given) | inconclusive: -9.47% [at 46 µM] | –
C/C(=N\NC(=S)Nc1ccccc1C)c1ccc(O)cc1 | inconclusive: 43.6% [at 46 µM] | –
Cc1ccc2nc(-c3ccccc3)c(CN3CCSCC3)n2c1 | inconclusive: 9.76% [at 46 µM] | –
O=C(c1ccc(-c2ccccc2)cc1)N1CCN(Cc2ccccn2)CC1 | inconclusive: -11.4% | –
CC(Sc1ccc2ccccc2n1)C(=O)O (stereo not given) | inactive | –
O=C(COc1ccccc1)c1cn(CC(=O)N2CCCC2)c2ccccc12 | inconclusive: 3.83% [at 46 µM] | –
Cc1c(Cl)cccc1-n1ncc(C(=O)N2CCc3ccccc3C2)c1C1CCN(C(=O)OC(C)(C)C)CC1 | inactive: 1.46% [at 46 µM] | –
O=C(Nc1nc2ccccc2s1)C1c2ccccc2Oc2ccccc21 | – | inconclusive: 22.4 µM [falling, single point]
CN(C)S(=O)(=O)c1ccc(Cl)c(NC(=O)COC(=O)CCSc2ccccc2)c1 | inactive: -13.6% | –

Single records, from the list above:
`O=C(OCn1ncc(Br)c(Br)c1=O)c1c(F)cccc1F` is listed as Potency: inconclusive: 35.5 µM [falling, single point]
`COC(=O)c1cc2sc(Cl)cc2n1CC(=O)Nc1cccc(SC)c1` is listed as ratio change, negative = inhibition: inconclusive: 31.5%

(listing goes on)

SMILES | ratio change, negative = inhibition | Potency
COc1ccc(C2=Nn3c(nnc3-c3ccco3)SC2)cc1OC | inconclusive: -38.6% | –
CNC(=S)N/N=C1\C(=O)c2cccc3cccc1c23 | inconclusive: 10.9% [at 0.0737 µM] | –
CCN(CC1COc2ccccc2O1)C(=S)Nc1ccc(F)cc1 (stereo not given) | – | inconclusive: 12.6 µM [fluorescent, partial curve, poor fit]
CCOC(=O)N1CCN(S(=O)(=O)N2CCCC(C(=O)NCc3cc(OC)ccc3OC)C2)CC1 (stereo not given) | inactive: -3.75% [at 46 µM] | –
Cc1ccsc1/C=N/NC(=O)c1cccc(S(=O)(=O)Nc2ccccc2Cl)c1 | inconclusive: -27% | –
COCCNS(=O)(=O)c1ccccc1 | inactive: 20.1% | –
CCOCC(=O)Nc1nc2c(s1)C(=O)CC(C)(C)C2 | inactive: 1.37% | –
O=C(Cn1ccc(C(F)(F)F)n1)N/N=C/c1ccc(N2CCOCC2)cc1 | inconclusive: -2.21% [at 46 µM] | –
CN1CC(c2ccc(Cl)c(Cl)c2)[C@@]2(COc3ccccc3C2=O)[C@@]12C(=O)Nc1ccccc12 (stereo not given in full) | – | inconclusive: 35.5 µM [falling, single point]
CCOc1cc(C(=O)Nc2cc(C)ccc2OC)ccc1OCC(=O)N1CCCCC1 | inconclusive: 16% | –
COc1ccc(NC(=O)/C(=C/c2ccc3c(c2)OCO3)NC(C)=O)cc1 | inactive: 1.92% | –
O=C1C2CCCN2C(c2ccccc2F)N1c1ccc(Cl)cc1 (stereo not given) | – | inconclusive: 15.8 µM [inhibitor, single point]
CCc1cccc(CC)c1-n1c(SCC(=O)c2c(N)n(C)c(=O)n(C)c2=O)nnc1-c1cccnc1 | inactive: -2.01% | –
CN1CCN(c2cc(-c3ccoc3)ncn2)CC1 | inactive: 5.17% | –
O=C(c1ccccc1)N1CCN(C(=O)c2ccc([N+](=O)[O-])cc2)CC1 | inactive: -7.31% | –
O=C(/C=N/NC(=O)c1ccccc1Br)c1ccccc1 | inactive: 26% [at 46 µM] | –
Cc1cc(OCc2ccc(C(=O)n3cccn3)o2)ccc1Cl | inactive: -3.33% | –
COc1ccc(S(=O)(=O)Nc2cccc(-c3ccc(N4CCOCC4)nn3)c2)cc1F | – | inconclusive: 12.6 µM [inhibitor, single point]
CCOc1cccc(/C(O)=C2/C(=O)C(=O)N(Cc3cccnc3)C2c2ccco2)c1 (stereo not given) | inactive: 10.9% | –
CC(=O)c1ccc(N2C(=O)N(Cc3cccc(C(F)(F)F)c3)c3ccccc3S2(=O)=O)cc1 | inactive: -18.6% [at 46 µM] | –
COc1ccc(N(Cc2cccs2)C(=O)c2ccccc2C)cc1 | – | inconclusive: 0.0316 µM [activator, full curve, poor fit]
O=S(=O)(Nc1ccc(-c2csc(-c3ccccc3)n2)cc1)c1ccc(F)cc1 | inconclusive: -31.6% | –
O=C(Cc1ccc(Cl)cc1)Nc1ccc(N2CCN(C(=O)c3ccco3)CC2)c(Cl)c1 | inconclusive: -24.5% | –
Cc1nc2sccn2c1-c1nc(-c2cc3ccccc3o2)cs1 | inconclusive: 8.43% | –
Cc1ccc(NC(=O)C2CCCN(c3ncnc4c3nc3n4CCCCC3)C2)cc1F (stereo not given) | inactive: 10.1% [at 46 µM] | –
COc1ccc2[nH]cc(CCNc3ncncc3-c3c(C)noc3C)c2c1 | inactive: -13.2% | –
